Read-outs that look alike come from different tables or passages of the source. These are yes or no findings as the source states them, for the method shown. Some entries that bind do so weakly or less than the wild type. For part of these data: Sequences can lack the tags named with a protein.

Amino acid sequences for entries named in this document (tags omitted).
UniProt P06634: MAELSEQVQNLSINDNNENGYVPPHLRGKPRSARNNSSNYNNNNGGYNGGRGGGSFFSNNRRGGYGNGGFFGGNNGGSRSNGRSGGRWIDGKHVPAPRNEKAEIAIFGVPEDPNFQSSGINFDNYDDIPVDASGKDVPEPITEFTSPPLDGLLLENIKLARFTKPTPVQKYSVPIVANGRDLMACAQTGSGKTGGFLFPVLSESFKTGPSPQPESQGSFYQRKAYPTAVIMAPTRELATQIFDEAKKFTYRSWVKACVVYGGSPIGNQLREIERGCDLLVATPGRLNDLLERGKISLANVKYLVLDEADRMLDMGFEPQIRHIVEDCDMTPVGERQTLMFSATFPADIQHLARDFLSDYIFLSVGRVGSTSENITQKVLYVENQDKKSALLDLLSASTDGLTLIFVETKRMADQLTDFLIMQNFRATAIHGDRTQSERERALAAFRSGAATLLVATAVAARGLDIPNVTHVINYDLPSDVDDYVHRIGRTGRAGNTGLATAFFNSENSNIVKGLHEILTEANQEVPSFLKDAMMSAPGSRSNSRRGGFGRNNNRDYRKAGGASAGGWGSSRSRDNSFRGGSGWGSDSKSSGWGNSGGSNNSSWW

In experiment [1] the target is T1, His6-Cbp20 (S. cerevisiae) (UniProt Q08920).
T1 sequence: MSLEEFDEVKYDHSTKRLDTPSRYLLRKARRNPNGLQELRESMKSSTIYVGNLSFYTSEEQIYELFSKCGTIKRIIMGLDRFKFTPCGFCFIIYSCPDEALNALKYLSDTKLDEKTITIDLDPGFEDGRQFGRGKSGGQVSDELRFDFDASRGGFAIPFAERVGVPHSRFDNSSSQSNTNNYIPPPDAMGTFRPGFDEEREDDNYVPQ
Briefly: pull-down; 7-methyl-GTP Sepharose beads loaded with 5 μg purified eIF4E or Cbp20, 5 μg of the purified proteins added with 50 U RNase I, 90 min on ice, TpB buffer (20 mM HEPES pH 7.9, 100 mM KCl, 2 mM MgCl2, 2 mM DTT), eluted with 1 mM 7-methyl-GTP; Coomassie-stained SDS PAGE; both purified.

Experiment [2] deals with T2, MalE-Cbp80 (S. cerevisiae) (UniProt P34160).
T2 sequence: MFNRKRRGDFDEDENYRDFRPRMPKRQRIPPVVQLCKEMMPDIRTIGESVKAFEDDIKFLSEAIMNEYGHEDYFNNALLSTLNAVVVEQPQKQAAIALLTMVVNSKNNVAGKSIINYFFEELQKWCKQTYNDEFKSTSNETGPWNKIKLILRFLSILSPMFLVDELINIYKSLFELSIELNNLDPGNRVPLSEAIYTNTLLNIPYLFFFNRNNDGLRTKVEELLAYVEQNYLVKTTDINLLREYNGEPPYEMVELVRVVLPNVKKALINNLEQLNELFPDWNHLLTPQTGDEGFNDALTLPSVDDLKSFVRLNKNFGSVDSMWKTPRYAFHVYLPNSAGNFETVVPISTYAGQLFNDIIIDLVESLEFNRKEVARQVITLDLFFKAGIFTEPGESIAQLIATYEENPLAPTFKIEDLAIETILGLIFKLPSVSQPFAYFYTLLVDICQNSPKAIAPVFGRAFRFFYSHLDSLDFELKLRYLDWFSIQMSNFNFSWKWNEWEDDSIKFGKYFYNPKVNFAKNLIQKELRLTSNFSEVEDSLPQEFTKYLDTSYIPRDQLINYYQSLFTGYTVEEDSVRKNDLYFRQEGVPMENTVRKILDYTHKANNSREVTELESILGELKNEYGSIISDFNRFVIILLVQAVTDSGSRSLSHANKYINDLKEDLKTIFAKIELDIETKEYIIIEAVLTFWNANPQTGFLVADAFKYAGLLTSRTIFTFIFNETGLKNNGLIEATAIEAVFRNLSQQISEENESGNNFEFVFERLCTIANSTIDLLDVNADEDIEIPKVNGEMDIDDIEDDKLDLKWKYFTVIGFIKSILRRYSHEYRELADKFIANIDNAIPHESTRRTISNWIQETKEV
Briefly: pull-down; MalE-Cbp80 bound to amylose resin, incubated with purified proteins, eluted with 10 mM maltose; western blot with IgG against Ded1, Cbp80 and the His6 tag of Cbp20; both purified. In general terms: In western blotting, separated proteins are transferred to a membrane and probed.

The target in experiment [3] is Ded1-His6 (S. cerevisiae), P06634. Nature of the experiment: pull-down; Ded1 bound to protein A Sepharose beads crosslinked to IgG against Ded1, incubated with single purified proteins, washed, eluted; Coomassie-stained SDS PAGE, western blot for Pab1 and Cbp80; same results with or without RNase I or AMP-PNP; both purified. The note with it: remark: other sources report otherwise.

In experiment [4] the target is T3, GST-eIF4G1 fragment 1-596 (S. cerevisiae) (UniProt P39935).
T3 sequence: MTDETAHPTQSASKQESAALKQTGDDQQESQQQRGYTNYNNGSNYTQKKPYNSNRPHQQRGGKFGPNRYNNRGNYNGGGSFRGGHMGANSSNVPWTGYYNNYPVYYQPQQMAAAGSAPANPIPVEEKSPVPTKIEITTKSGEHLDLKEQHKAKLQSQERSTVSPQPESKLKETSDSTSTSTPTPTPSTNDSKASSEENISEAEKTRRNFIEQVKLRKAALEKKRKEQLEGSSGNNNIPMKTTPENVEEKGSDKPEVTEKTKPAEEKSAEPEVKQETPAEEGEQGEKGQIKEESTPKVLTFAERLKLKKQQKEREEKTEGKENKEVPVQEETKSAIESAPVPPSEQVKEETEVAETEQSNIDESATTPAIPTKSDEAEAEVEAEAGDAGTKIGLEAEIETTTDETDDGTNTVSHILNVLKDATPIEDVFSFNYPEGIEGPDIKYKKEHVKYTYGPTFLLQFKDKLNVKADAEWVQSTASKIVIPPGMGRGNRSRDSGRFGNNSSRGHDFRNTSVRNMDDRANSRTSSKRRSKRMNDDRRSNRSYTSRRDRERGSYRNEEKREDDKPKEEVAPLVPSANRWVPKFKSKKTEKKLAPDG
Nature of the experiment: pull-down; positive control: eIF4G fragments with eIF4E or eIF4A; data not shown; both purified.

Experiment [5] concerns the target T1, His6-Cbp20 (S. cerevisiae). Briefly: pull-down; 7-methyl-GTP Sepharose beads loaded with 5 μg purified eIF4E or Cbp20, 5 μg of the purified proteins added with 50 U RNase I, 90 min on ice, TpB buffer (20 mM HEPES pH 7.9, 100 mM KCl, 2 mM MgCl2, 2 mM DTT), eluted with 1 mM 7-methyl-GTP; Coomassie-stained SDS PAGE; both purified. The source holds these as a separate data set.

A further experiment deals with Ded1-His6 (S. cerevisiae, UniProt P06634 1-604). Nature of the experiment: pull-down; Ded1 bound to protein A Sepharose beads crosslinked to IgG against Ded1, incubated with single purified proteins, washed, eluted; Coomassie-stained SDS PAGE, western blot for Pab1 and Cbp80; same results with or without RNase I or AMP-PNP; both purified.

“Ded1-His6 (from UniProt P06634 1-604) (enzyme)”: the binding result is recorded as “binds weakly” in experiment [1] and “binds” in experiment [2].

B1: eIF4A-His6, P10081 1-395 (enzyme)
chain: MSEGITDIEESQIQTNYDKVVYKFDDMELDENLLRGVFGYGFEEPSAIQQRAIMPIIEGHDVLAQAQSGTGKTGTFSIAALQRIDTSVKAPQALMLAPTRELALQIQKVVMALAFHMDIKVHACIGGTSFVEDAEGLRDAQIVVGTPGRVFDNIQRRRFRTDKIKMFILDEADEMLSSGFKEQIYQIFTLLPPTTQVVLLSATMPNDVLEVTTKFMRNPVRILVKKDELTLEGIKQFYVNVEEEEYKYECLTDLYDSISVTQAVIFCNTRRKVEELTTKLRNDKFTVSAIYSDLPQQERDTIMKEFRSGSSRILISTDLLARGIDVQQVSLVINYDLPANKENYIHRIGRGGRFGRKGVAINFVTNEDVGAMRELEKFYSTQIEELPSDIATLLN
With B1, the binding result in experiment [3] is recorded as “no binding”.

B2: eIF4E with an amino-terminal His6 tag (natural protein, S. cerevisiae, UniProt P07260 1-213, looked up)
chain: MSVEEVSKKFEENVSVDDTTATPKTVLSDSAHFDVKHPLNTKWTLWYTKPAVDKSESWSDLLRPVTSFQTVEEFWAIIQNIPEPHELPLKSDYHVFRNDVRPEWEDEANAKGGKWSFQLRGKGADIDELWLRTLLAVIGETIDEDDSQINGVVLSIRKGGNKFALWTKSEDKEPLLRIGGKFKQVLKLTDDGHLEFFPHSSANGRHPQPSITL
notes: eIF4E (CDC33) of S. cerevisiae cloned into the NdeI-BamHI sites of pET15b; also called CDC33; source: E. coli (pET15b), purified on nickel-agarose
For B2, the binding entry in experiment [4] is “binds”.

B3: MalE-Cbp80 (protein, UniProt P34160 1-861)
chain: MFNRKRRGDFDEDENYRDFRPRMPKRQRIPPVVQLCKEMMPDIRTIGESVKAFEDDIKFLSEAIMNEYGHEDYFNNALLSTLNAVVVEQPQKQAAIALLTMVVNSKNNVAGKSIINYFFEELQKWCKQTYNDEFKSTSNETGPWNKIKLILRFLSILSPMFLVDELINIYKSLFELSIELNNLDPGNRVPLSEAIYTNTLLNIPYLFFFNRNNDGLRTKVEELLAYVEQNYLVKTTDINLLREYNGEPPYEMVELVRVVLPNVKKALINNLEQLNELFPDWNHLLTPQTGDEGFNDALTLPSVDDLKSFVRLNKNFGSVDSMWKTPRYAFHVYLPNSAGNFETVVPISTYAGQLFNDIIIDLVESLEFNRKEVARQVITLDLFFKAGIFTEPGESIAQLIATYEENPLAPTFKIEDLAIETILGLIFKLPSVSQPFAYFYTLLVDICQNSPKAIAPVFGRAFRFFYSHLDSLDFELKLRYLDWFSIQMSNFNFSWKWNEWEDDSIKFGKYFYNPKVNFAKNLIQKELRLTSNFSEVEDSLPQEFTKYLDTSYIPRDQLINYYQSLFTGYTVEEDSVRKNDLYFRQEGVPMENTVRKILDYTHKANNSREVTELESILGELKNEYGSIISDFNRFVIILLVQAVTDSGSRSLSHANKYINDLKEDLKTIFAKIELDIETKEYIIIEAVLTFWNANPQTGFLVADAFKYAGLLTSRTIFTFIFNETGLKNNGLIEATAIEAVFRNLSQQISEENESGNNFEFVFERLCTIANSTIDLLDVNADEDIEIPKVNGEMDIDDIEDDKLDLKWKYFTVIGFIKSILRRYSHEYRELADKFIANIDNAIPHESTRRTISNWIQETKEV
Turning to B3, the binding entry (in experiment [5]; in the experiment with Ded1-His6) was “binds” in each case.
